Measurements as given in article PMC4703059.

Target: DENN domain of Lst4 (truncated two-hybrid construct) (S. cerevisiae)
Experiment: two-hybrid; Lst7 as prey in pACT2 (GAL activation domain); Lst4, its truncations and COPII coat genes as bait in pLexPD (LexA DNA binding domain); L40 reporter strain; serial dilutions spotted on plates with and without histidine; LacZ beta-galactosidase assay as second reporter

B1: Lst7 (GAL activation domain fusion, pACT2) (protein, UniProt P53237 1-242)
chain: MSSTVISLAHFCDKHGPRIISVTQSAEKGTLGEELLVPDYPTESYCESCLLQFPEESTRSMRCFIEDVPFITTQYSSIRYQLLNSIIKRAFSEETMIYDNMPFIFFDDLRGLNLVIGFKLYDENARGNERRYCFILTVDSRSHDDSMKMLSEHWNFIIGGFDKMIAYIKNIHKSEFLGKNKTVENNLETLNNNAFIGSYLRANKSKFGRNLVSLTDDKFLFVRIHKWNSFLLHTVMNENKLP
  binding: binds

These are yes or no findings as the source states them, for the method shown. Binding can be weak; no strength is given. Where a sequence is shown, tags or fusion partners need not be part of it.
